PubChem BioAssay AID1671195 | Yale University, 2021
In all, the deposit lists about 22,000 reagents; below is a part drawn at random. About 1,510 of them (6.9%) were called active. 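Active includes knockdowns raising or lowering LDL uptake; positive z-scores mean more uptake, negative mean less.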 Unmarked entries are inactive. No sequences are given here.

- Aim: 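Knockdowns that increase or decrease uptake of fluorescent LDL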 (primary screen)
- Cell system: human Huh7 hepatoma cells
- Knock-down reagent: siRNA pool against human genes, 18 nM
- Time to read-out: about 2 to 2.5 days of knockdown, then 8 h LDL uptake
- Challenge: DiI-labelled LDL at 30 µg/ml for 8 h, in lipoprotein-deficient serum medium
- Read-out: 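Fluorescent LDL signal imaged in cells, scaled to the plate median, robust z-score for each replicate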
- Direction: robust z-score: higher = more LDL uptake after knockdown
- Call rule: 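a gene counts as active if at least two replicate z-scores exceed ±2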

OACYLP → robust z-score, replicate 1: 0.858; robust z-score, replicate 2: 1.07; robust z-score, replicate 3: 1.06
CD276 → robust z-score, replicate 1: 0.278; robust z-score, replicate 2: -0.524; robust z-score, replicate 3: -0.263
ACVR2A → robust z-score, replicate 1: 2.77 (active); robust z-score, replicate 2: 2.12; robust z-score, replicate 3: 2.34
CARTPT → robust z-score, replicate 1: 0.0528; robust z-score, replicate 2: -0.727; robust z-score, replicate 3: 0.58
MRPL32 → robust z-score, replicate 1: -0.156; robust z-score, replicate 2: -0.562; robust z-score, replicate 3: -0.113
LOC389441 (retired record) → robust z-score, replicate 1: 2.48 (active); robust z-score, replicate 2: 2.94; robust z-score, replicate 3: 2.69
HSF1 → robust z-score, replicate 1: -1.64; robust z-score, replicate 2: -0.0889; robust z-score, replicate 3: -1.36
LOC441125 (retired record) → robust z-score, replicate 1: 0.461; robust z-score, replicate 2: 0.669; robust z-score, replicate 3: 0.554
ZNF428 → robust z-score, replicate 1: 0.292; robust z-score, replicate 2: -0.396; robust z-score, replicate 3: -0.622
ACOXL-AS1 → robust z-score, replicate 1: 0.403; robust z-score, replicate 2: -0.0915; robust z-score, replicate 3: 0.581
SCAF11 → robust z-score, replicate 1: 0.539; robust z-score, replicate 2: -0.401; robust z-score, replicate 3: 0.212
USP32P2 → robust z-score, replicate 1: 0.748; robust z-score, replicate 2: 1.11; robust z-score, replicate 3: 0.943
KRT13 → robust z-score, replicate 1: -0.754; robust z-score, replicate 2: -0.39; robust z-score, replicate 3: -0.407
ZSCAN12 → robust z-score, replicate 1: -0.252; robust z-score, replicate 2: 0.046; robust z-score, replicate 3: -0.214
GLI2 → robust z-score, replicate 1: -0.595; robust z-score, replicate 2: -0.0316; robust z-score, replicate 3: -0.207

Ordered by “robust z-score, replicate 3” (low to high): 3 of the entries above.
CD276 → robust z-score, replicate 1: 0.278; robust z-score, replicate 2: -0.524; robust z-score, replicate 3: -0.263
CARTPT → robust z-score, replicate 1: 0.0528; robust z-score, replicate 2: -0.727; robust z-score, replicate 3: 0.58
ACVR2A → robust z-score, replicate 1: 2.77 (active); robust z-score, replicate 2: 2.12; robust z-score, replicate 3: 2.34

Next results follow:
MAFK → robust z-score, replicate 1: -0.996; robust z-score, replicate 2: -1.55; robust z-score, replicate 3: -1.74
NRP1 → robust z-score, replicate 1: -0.00387; robust z-score, replicate 2: 0.0317; robust z-score, replicate 3: 0.137
STOML3 → robust z-score, replicate 1: -0.232; robust z-score, replicate 2: -0.731; robust z-score, replicate 3: -0.611
IGHMBP2 → robust z-score, replicate 1: -1.43; robust z-score, replicate 2: -0.993; robust z-score, replicate 3: -1.23
UBE2D1 → robust z-score, replicate 1: -1.31; robust z-score, replicate 2: -1.18; robust z-score, replicate 3: -1.31
SDCBP2 → robust z-score, replicate 1: -0.802; robust z-score, replicate 2: -0.154; robust z-score, replicate 3: 0.99
RPL21P44 → robust z-score, replicate 1: -1.44; robust z-score, replicate 2: -1.53; robust z-score, replicate 3: -1.87
EXOG → robust z-score, replicate 1: -1.19; robust z-score, replicate 2: -0.937; robust z-score, replicate 3: -1.23
RAB41 → robust z-score, replicate 1: 0.22; robust z-score, replicate 2: -0.433; robust z-score, replicate 3: -0.858
